Here are results for 15 substances from patent publication US20250090699A1 (Novartis AG, priority 2023, published 2025).

This data set can be described thus: general procedure: Fmoc solid-phase peptide synthesis; H-Gly-Cl-Trt resin, H-Gly-Trt-Amide-MBHA resin or H-Gly-HMPB-Bal-MBHA resin; HATU, PyAOP, PyOxim, DIC/Oxyma Pure, DIEA as base. The note with it: for step yield: late stage modification step; for step yield / conjugation yield / isolated mass / isolated yield: TFA salt; for conjugation yield: conjugation step; for isolated mass / isolated yield: whole synthesis.

[1] abbreviates: head-to-tail ring, sequence written open.

With “Gly-Gly-NMePhe-F(4amPEG2NHDOTA-Lu)-Aoc-Trp-Gly-K(COpipzaa)-Asp-D-Pro [C1]”, under “head-to-tail ring”, the step yield came out at 78% yield. In the case of “2,2′,2″-(10-((R)-4-((2-(4-(((9S,12S,15S,18S,24S,27S,32aR)-18-((1H-indol-3-yl)methyl)-9-benzyl-27-(carboxymethyl)-24-(4-hydroxybenzyl)-8-methyl-1,4,7,10,13,16,19,22,25,28-decaoxo-15-pentyldotriacontahydropyrrolo[1,2-a][1,4,7,10,13,16,19,22,25,28]decaazacyclotriacontin-12-yl)methyl)phenoxy)ethyl)amino)-1-carboxy-4-oxobutyl)-1,4,7,10-tetraazacyclododecane-1,4,7-triyl)triacetic acid TFA salt”, the conjugation yield was 46%. On to “Gly-Gly-NMePhe-F(4amPEG2NHAAZTA)-Ao-Trp-Gly-K(COpipzaa)-Asp-D-Pro”, for which the step yield (head-to-tail ring) was determined as 32% yield. “2-((3S,9S,12S,15S,18S,24S,27S,32aR)-18-((1H-indol-3-yl)methyl)-3-(4-aminobutyl)-9-benzyl-15-(3-((S)-2-cyano-4,4-difluoropyrrolidin-1-yl)-3-oxopropyl)-12,24-bis(4-hydroxybenzyl)-8-methyl-1,4,7,10,13,16,19,22,25,28-decaoxodotriacontahydropyrrolo[1,2-a][1,4,7,10,13,16,19,22,25,28]decaazacyclotriacontin-27-yl)acetic acid TFA salt”: where the note is “scale 100 μmol”, the isolated mass is on record as 16.5 mg and the isolated yield turned out to be 11%.

As for “Gly-Gly-NMePhe-F4(amMeGlyDOTA)-Ahp-Trp-Gly-Tyr-Asp-D-Pro”, the conjugation yield under setting [1] was determined as 46%. Consider “Gly-Gly-NMePhe-F(4AmAc)-Ahp-Trp-Gly-Tyr-Asp-D-Pro”, for which, under setting [1], the step yield was determined as 82%. For “2-((9S,12S,15S,18S,24S,27S,32aR)-18-((1H-indol-3-yl)methyl)-12-(4-((2-(2-(2-aminoethoxy)ethoxy)acetamido)methyl)benzyl)-9-benzyl-24-(4-(4-(carboxymethyl)piperazine-1-carboxamido)butyl)-8-methyl-1,4,7,10,13,16,19,22,25,28-decaoxo-15-(2-propoxyethyl)dotriacontahydropyrrolo[1,2-a][1,4,7,10,13,16,19,22,25,28]decaazacyclotriacontin-27-yl)acetic acid TFA salt”, where the note is “scale 1.80 mmol”, the isolated mass amounted to 1041 mg and the isolated yield came to 33%. With “2-((9S,12S,15S,18S,24S,27S,32aR)-18-((1H-indol-3-yl)methyl)-9-benzyl-24-(2-(4-(carboxymethyl)piperazine-1-carboxamido)ethyl)-12-(4-hydroxybenzyl)-8-methyl-1,4,7,10,13,16,19,22,25,28-decaoxo-15-pentyldotriacontahydropyrrolo[1,2-a][1,4,7,10,13,16,19,22,25,28]decaazacyclotriacontin-27-yl)acetic acid TFA salt”, the step yield amounted to 43%.

Take “2-((3S,9S,12S,15S,18S,24S,27S,32aR)-18-((1H-pyrrolo[2,3-b]pyridin-3-yl)methyl)-3-(4-aminobutyl)-9-benzyl-12,24-bis(4-hydroxybenzyl)-8-methyl-1,4,7,10,13,16,19,22,25,28-decaoxo-15-pentyldotriacontahydropyrrolo[1,2-a][1,4,7,10,13,16,19,22,25,28]decaazacyclotriacontin-27-yl)acetic acid TFA salt”: for the setting “scale 100 μmol”, the isolated mass turned out to be 56.3 mg and the isolated yield came to 38%. On to “Gly-Gly-NMePhe-Tyr-Ahp-Trp-Gly-Tyr-Asp-D-Pro”, for which the step yield stood at 59%. Regarding “Gly-Gly-NMePhe-F(4amPEG2NHDOTA)-Aoc-Trp-Gly-K(COpipzaa)-Asp-D-Pro”, where the note is “head-to-tail ring”, the conjugation yield worked out at 70%. As for “2-((9S,12S,15S,18S,24S,27S,32aR)-18-((1H-indol-3-yl)methyl)-9-benzyl-24-(4-(4-(carboxymethyl)piperazine-1-carboxamido)butyl)-12-(4-hydroxybenzyl)-8,23-dimethyl-1,4,7,10,13,16,19,22,25,28-decaoxo-15-pentyldotriacontahydropyrrolo[1,2-a][1,4,7,10,13,16,19,22,25,28]decaazacyclotriacontin-27-yl)acetic acid TFA salt”, the cyclisation yield (cyclisation step, on A3-1, TFA salt) stood at 34%. As for “Lys-Gly-NMePhe-Tyr-Aoc-Trp-Gly-Tyr-Asp-D-Pro”, the isolated yield came out at 16%. Consider “Gly-Gly-NMePhe-F(4amPEG2NHDOTA-Ga)-Aoc-Trp-Gly-K(COpipzaa)-Asp-D-Pro [C44]”, for which the step yield (head-to-tail ring) came to 82% yield. Turning to “2-(4-((4-((6S,9S,15S,18S,21S,24S,29aS,34aR)-15-((1H-indol-3-yl)methyl)-21-(4-((2-(2-(2-aminoethoxy)ethoxy)acetamido)methyl)benzyl)-24-benzyl-6-(carboxymethyl)-25-methyl-5,8,11,14,17,20,23,26,29,34-decaoxo-18-(2-propoxyethyl)dotriacontahydro-1H,5H-dipyrrolo[1,2-a:1′,2′-b1][1,4,7,10,13,16,19,22,25,28]decaazacyclotriacontin-9-yl)butyl)carbamoyl)piperazin-1-yl)acetic acid TFA salt”, the step yield is listed as 50%.
